This is one part of the list. Hit calls seldom repeat between salt and free forms of one compound.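 Kinases were expressed as nanoluciferase fusions in K562 cells and luminescence was read every 4 h between 2 and 18 h as percent of control, DMSO set to 100% and a positive control to 0%. A time point counts as decreased when the signal drops significantly (2 sigma). The hit call is the authors' own, does not follow from the count of time points alone, and its rule is not shown.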
Columns and labels:
Experiment in all cases: number of time points (of 5) at which kinase-Nluc abundance scored as decreased, DMSO-normalised (count); higher = more persistent destabilization
Details in all cases: K562; 2-18 h
ALK = ALK (UniProt Q9UM73)
ARAF = ARAF (UniProt P10398)
AURKA = AURKA (UniProt O14965)
AURKB = AURKB (UniProt Q96GD4)
AURKC = AURKC (UniProt Q9UQB9)
BLK = BLK (UniProt P51451)
BMX = BMX (UniProt P51813)
BRAF = BRAF (UniProt P15056)
BRAF_V600E = tested on: BRAF_V600E
BTK = BTK (UniProt Q06187)
CAMK2A = CAMK2A (UniProt Q9UQM7)
CAMK2G = CAMK2G (UniProt Q13555)
CDK10 = CDK10 (UniProt Q15131)
CDK2 = CDK2 (UniProt P24941)
CDK3 = CDK3 (UniProt Q00526)
CDK5 = CDK5 (UniProt Q00535)
CDK6 = CDK6 (UniProt Q00534)
CHEK2 = CHEK2 (UniProt O96017)
CSF1R = CSF1R (UniProt P07333)
CSK = CSK (UniProt P41240)

By UniProt entry, the sequences of proteins in these tests, tags left out. Where a name states a change or a piece, a line headed by the entry shows the natural chain unless it says otherwise.
UniProt Q9UM73: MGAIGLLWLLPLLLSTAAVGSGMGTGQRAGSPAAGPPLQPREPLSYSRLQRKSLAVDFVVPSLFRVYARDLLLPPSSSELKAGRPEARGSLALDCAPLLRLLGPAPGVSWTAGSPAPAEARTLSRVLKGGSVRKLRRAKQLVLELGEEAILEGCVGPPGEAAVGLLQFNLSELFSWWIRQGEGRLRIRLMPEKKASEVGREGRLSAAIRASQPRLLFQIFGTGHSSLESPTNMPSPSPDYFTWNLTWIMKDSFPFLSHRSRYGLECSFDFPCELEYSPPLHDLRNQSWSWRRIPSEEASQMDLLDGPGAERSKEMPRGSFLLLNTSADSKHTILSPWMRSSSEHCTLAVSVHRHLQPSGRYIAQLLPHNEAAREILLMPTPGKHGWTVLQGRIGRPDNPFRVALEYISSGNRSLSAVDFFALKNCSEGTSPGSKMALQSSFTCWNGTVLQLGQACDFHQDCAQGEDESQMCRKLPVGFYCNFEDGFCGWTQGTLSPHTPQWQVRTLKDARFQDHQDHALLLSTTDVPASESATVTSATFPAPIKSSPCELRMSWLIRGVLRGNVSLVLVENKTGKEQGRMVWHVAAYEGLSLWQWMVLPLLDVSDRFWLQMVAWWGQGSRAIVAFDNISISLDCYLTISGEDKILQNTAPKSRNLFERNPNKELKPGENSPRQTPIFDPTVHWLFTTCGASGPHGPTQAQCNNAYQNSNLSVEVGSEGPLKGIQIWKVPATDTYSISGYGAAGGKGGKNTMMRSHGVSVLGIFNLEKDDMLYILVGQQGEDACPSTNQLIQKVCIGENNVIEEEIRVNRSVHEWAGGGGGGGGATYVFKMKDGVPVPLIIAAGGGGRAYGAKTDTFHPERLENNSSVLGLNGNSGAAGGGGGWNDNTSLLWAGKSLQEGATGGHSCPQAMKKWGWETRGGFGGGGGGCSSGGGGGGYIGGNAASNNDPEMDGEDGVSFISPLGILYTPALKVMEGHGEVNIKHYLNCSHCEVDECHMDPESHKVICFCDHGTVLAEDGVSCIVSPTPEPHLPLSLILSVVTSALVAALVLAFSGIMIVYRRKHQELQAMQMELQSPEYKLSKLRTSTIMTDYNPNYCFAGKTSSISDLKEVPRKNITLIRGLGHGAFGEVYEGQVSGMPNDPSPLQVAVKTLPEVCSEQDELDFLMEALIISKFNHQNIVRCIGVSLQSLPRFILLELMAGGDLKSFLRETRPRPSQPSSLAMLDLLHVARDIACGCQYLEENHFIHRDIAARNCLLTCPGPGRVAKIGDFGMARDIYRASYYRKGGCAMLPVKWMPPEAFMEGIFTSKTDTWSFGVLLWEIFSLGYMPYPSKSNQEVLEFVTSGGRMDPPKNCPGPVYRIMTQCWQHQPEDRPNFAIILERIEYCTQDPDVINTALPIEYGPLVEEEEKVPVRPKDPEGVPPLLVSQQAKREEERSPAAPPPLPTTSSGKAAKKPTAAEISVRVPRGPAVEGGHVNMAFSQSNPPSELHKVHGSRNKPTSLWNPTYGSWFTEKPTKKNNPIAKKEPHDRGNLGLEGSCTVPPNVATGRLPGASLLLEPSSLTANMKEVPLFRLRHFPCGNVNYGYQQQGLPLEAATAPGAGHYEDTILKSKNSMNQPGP
UniProt P10398: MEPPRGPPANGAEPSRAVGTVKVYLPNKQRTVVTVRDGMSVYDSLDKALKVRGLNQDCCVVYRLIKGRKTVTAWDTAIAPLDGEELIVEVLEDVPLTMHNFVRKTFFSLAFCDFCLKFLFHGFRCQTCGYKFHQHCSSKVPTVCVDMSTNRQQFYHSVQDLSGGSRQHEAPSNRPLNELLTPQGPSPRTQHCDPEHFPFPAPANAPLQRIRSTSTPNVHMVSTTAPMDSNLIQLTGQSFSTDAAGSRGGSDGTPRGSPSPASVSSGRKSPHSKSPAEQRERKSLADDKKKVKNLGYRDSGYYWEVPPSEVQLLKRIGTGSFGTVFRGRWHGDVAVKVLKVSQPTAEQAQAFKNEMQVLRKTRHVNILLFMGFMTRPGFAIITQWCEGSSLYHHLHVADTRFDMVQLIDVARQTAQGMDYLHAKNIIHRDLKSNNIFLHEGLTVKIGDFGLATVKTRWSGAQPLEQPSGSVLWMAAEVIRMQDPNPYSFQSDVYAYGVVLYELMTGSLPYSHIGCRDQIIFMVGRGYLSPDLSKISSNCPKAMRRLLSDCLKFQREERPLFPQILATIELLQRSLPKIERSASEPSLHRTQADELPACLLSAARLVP
UniProt O14965: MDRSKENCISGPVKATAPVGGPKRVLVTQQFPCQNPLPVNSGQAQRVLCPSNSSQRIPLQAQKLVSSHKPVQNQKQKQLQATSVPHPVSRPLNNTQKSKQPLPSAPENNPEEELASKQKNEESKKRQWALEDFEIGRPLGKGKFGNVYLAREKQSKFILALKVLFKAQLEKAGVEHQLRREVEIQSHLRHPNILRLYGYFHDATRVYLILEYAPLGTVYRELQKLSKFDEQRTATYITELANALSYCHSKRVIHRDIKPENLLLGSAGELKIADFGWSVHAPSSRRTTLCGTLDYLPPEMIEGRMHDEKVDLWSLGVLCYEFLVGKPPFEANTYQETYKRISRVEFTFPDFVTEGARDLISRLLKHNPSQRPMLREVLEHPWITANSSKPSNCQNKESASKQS
UniProt Q96GD4, whole entry: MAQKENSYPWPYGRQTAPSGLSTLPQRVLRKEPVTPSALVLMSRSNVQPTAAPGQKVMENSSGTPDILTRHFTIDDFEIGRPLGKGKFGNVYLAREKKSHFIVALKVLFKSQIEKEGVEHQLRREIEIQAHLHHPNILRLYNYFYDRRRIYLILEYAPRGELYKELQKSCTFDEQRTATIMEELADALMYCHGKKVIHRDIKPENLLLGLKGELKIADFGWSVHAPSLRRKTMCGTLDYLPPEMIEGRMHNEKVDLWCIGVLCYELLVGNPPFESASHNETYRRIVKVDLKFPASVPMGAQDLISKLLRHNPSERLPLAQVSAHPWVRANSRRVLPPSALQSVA
UniProt Q9UQB9: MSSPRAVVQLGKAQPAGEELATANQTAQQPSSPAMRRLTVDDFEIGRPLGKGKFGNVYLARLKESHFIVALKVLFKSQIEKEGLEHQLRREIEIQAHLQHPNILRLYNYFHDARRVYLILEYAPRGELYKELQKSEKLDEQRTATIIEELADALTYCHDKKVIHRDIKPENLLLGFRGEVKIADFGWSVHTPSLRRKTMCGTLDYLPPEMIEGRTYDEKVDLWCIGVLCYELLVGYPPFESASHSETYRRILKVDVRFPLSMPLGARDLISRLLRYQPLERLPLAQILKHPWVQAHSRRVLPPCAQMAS
UniProt P51813: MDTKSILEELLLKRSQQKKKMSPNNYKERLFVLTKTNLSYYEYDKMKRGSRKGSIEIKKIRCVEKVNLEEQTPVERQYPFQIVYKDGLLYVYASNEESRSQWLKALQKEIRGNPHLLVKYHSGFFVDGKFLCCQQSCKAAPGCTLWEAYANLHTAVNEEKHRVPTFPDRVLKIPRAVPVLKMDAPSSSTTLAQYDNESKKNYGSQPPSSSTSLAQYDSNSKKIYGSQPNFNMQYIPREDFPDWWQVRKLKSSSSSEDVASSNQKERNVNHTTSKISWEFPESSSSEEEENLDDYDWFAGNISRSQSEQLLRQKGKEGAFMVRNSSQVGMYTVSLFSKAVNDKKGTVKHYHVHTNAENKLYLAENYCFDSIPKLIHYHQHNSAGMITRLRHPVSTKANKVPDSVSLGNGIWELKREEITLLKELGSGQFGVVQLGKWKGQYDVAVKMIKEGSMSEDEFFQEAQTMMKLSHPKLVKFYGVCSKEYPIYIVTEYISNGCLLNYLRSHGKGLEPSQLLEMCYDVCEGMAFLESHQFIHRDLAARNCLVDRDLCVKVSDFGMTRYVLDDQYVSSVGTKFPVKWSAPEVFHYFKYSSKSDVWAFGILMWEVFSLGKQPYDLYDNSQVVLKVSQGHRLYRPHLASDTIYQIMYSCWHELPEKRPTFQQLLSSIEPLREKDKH
UniProt P15056, whole entry, looked up: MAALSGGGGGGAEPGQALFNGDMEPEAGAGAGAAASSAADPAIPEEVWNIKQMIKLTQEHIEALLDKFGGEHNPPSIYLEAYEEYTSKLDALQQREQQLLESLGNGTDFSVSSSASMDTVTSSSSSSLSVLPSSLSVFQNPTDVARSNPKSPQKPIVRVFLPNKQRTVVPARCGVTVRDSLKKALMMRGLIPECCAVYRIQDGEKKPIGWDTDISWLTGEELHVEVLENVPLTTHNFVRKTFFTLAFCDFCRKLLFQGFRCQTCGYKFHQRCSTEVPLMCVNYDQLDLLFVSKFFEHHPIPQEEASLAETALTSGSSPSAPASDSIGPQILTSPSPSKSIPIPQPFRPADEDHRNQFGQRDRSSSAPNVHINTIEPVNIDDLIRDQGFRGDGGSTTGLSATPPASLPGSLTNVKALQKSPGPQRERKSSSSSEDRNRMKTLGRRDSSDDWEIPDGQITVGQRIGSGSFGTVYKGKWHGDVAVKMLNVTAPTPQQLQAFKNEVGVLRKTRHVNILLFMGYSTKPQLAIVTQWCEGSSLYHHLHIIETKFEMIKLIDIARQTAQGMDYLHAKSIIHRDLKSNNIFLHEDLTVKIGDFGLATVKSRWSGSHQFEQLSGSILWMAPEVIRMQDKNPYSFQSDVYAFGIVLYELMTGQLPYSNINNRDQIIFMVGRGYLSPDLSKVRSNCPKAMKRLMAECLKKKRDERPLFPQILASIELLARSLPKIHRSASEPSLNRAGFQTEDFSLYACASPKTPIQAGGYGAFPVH
UniProt Q00526: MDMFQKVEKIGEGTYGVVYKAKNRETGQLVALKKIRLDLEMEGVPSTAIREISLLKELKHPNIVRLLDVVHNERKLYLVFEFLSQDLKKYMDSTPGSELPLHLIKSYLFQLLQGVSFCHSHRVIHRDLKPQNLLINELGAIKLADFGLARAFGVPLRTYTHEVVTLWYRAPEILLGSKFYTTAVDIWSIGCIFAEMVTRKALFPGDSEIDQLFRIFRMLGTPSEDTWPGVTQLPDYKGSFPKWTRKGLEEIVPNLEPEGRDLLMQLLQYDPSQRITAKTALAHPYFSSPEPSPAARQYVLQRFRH
UniProt P07333, whole entry: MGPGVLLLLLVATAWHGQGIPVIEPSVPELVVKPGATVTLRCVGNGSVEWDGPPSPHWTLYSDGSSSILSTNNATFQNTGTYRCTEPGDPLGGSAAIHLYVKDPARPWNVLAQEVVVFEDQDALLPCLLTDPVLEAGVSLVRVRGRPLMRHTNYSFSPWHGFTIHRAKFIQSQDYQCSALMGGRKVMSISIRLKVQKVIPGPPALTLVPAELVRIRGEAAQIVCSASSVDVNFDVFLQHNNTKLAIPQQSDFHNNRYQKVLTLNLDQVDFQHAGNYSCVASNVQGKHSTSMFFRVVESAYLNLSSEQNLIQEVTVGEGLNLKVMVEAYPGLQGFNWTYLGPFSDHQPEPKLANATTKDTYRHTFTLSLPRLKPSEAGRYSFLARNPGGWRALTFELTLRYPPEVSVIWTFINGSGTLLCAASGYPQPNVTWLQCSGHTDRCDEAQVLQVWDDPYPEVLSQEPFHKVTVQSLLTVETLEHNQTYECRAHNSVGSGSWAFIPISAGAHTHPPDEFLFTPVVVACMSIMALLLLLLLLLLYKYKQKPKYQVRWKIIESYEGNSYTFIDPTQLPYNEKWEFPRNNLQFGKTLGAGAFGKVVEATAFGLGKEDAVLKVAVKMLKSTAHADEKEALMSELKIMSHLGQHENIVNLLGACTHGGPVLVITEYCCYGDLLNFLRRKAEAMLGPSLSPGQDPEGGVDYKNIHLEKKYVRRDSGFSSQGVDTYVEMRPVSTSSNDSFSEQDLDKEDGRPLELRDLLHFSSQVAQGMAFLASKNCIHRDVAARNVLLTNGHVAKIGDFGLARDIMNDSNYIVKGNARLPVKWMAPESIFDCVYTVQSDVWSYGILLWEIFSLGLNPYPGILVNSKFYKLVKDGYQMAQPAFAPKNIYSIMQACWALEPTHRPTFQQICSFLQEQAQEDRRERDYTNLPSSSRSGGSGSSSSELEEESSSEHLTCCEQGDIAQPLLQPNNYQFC
UniProt P41240: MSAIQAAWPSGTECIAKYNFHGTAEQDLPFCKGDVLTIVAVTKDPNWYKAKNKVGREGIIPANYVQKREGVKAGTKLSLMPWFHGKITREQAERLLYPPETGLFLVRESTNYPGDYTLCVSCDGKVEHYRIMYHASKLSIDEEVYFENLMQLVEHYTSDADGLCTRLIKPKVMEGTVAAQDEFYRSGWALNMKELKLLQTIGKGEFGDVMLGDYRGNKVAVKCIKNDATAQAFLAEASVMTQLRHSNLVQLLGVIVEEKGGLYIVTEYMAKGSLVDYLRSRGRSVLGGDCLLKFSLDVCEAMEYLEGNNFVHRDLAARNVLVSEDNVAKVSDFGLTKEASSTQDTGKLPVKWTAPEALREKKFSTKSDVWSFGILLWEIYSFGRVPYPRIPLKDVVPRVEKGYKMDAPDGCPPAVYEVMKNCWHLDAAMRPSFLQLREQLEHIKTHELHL

Measured: number of time points

Nc1ccc(-c2cnc(N)c(-c3ccc(Cl)cc3)c2)cn1 (10 µM)
0: all assays above

O=C(Nc1cn[nH]c1-c1ccccn1)c1nn(C2CCNCC2)cc1Cl (10 µM)
1: BRAF_V600E
0: all other assays above

FC(F)c1nc2ccccc2n1-c1nc(N2CCOCC2)nc(N2CCOCC2)n1 (2 µM)
4: BRAF_V600E
1: CHEK2
0: all other assays above

COc1ncc(Cl)cc1S(=O)(=O)Nc1ccc(F)c(C#Cc2cnc(N)nc2)c1F (2.5 µM)
5: BMX
0: all other assays above

Sorted by formula weight (smallest number first): 3 of the compounds above
Nc1ccc(-c2cnc(N)c(-c3ccc(Cl)cc3)c2)cn1 (10 µM)
0: all assays above

FC(F)c1nc2ccccc2n1-c1nc(N2CCOCC2)nc(N2CCOCC2)n1 (2 µM)
4: BRAF_V600E
1: CHEK2
0: all other assays above

COc1ncc(Cl)cc1S(=O)(=O)Nc1ccc(F)c(C#Cc2cnc(N)nc2)c1F (2.5 µM)
5: BMX
0: all other assays above

Next compounds

O=C(N/N=C/c1coc2ccccc2c1=O)c1cccnc1 (10 µM)
0: all assays above

O=Nc1c(-c2c(O)[nH]c3ccc(F)cc23)[nH]c2ccccc12 [5'-Fluoroindirubinoxime] (10 µM)
2: AURKB
4: ALK | AURKA
0: all other assays above

COc1ccc2c(OCc3nnc4ccc(-c5ccccc5)nn34)ccnc2c1 (2 µM)
0: all assays above

CN(C)CCSSCCNC(=O)C1CCN(C(=O)CSc2ccc(Cl)cc2)CC1 (10 µM)
0: all assays above
